# According to the supplement of paper PMC11732987, “Enantioselective OTUD7B fragment discovery through chemoproteomics screening and high-throughput optimisation” (Communications Chemistry, 2025):
# The chains behind the UniProt entries cited, without tags or fusion partners. Where a name states a change or a piece, a line headed by the entry shows the natural chain unless it says otherwise. Residues count along the entry.
# UniProt Q9BSL1: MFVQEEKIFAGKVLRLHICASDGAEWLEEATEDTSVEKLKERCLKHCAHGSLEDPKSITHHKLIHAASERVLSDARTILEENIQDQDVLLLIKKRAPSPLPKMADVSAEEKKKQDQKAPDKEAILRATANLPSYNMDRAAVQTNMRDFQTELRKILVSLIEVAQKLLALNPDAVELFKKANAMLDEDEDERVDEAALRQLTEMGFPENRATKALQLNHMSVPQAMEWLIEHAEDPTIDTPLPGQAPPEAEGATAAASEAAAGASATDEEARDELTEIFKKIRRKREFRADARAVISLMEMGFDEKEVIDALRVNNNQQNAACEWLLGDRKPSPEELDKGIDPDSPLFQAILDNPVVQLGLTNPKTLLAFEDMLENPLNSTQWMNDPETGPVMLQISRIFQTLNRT
# UniProt P61088: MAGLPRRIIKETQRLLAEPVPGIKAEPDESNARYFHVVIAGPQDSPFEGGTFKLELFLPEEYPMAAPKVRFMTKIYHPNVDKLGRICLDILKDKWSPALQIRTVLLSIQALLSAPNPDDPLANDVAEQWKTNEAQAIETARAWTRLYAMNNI
# UniProt Q99614: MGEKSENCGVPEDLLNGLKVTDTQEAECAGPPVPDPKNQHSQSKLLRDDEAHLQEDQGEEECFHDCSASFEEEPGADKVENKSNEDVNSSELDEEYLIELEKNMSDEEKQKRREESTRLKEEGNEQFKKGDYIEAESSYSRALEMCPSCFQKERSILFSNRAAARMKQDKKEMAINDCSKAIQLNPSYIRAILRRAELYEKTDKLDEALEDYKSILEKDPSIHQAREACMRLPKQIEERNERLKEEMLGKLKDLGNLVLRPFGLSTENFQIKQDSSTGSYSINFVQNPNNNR
# UniProt P43897: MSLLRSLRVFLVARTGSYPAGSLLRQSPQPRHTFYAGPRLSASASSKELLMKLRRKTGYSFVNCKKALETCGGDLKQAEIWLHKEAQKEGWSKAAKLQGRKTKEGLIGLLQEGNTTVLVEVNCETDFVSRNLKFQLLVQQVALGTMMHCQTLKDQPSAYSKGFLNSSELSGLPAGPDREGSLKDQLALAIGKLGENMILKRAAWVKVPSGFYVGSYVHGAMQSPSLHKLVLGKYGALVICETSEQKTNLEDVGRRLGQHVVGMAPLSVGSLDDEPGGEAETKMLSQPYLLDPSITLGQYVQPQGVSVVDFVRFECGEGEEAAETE
# UniProt Q7Z6J8: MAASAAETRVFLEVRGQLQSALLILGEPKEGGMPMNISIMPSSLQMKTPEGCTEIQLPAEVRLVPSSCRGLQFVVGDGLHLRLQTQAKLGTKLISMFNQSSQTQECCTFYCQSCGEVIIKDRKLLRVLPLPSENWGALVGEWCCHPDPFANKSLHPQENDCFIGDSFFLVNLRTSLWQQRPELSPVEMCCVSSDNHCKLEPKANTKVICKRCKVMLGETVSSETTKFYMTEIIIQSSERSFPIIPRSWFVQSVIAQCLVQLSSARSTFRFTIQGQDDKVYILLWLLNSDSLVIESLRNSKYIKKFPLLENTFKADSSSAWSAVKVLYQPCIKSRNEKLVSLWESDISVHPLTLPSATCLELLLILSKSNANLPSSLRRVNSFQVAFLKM
# UniProt Q9UJ04: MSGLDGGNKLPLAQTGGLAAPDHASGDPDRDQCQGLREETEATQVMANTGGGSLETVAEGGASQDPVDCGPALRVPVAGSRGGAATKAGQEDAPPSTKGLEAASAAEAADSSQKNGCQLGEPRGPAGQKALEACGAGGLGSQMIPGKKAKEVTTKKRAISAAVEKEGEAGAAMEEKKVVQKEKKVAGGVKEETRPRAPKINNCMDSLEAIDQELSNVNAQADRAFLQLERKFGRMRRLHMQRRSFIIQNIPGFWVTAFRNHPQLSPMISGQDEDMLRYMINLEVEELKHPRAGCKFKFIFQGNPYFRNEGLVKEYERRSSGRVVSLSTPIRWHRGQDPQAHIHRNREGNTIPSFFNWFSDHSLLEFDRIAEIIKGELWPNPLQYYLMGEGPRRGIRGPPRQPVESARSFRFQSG
# UniProt Q9UNY4, 549-575: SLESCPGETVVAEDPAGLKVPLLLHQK
# UniProt P49815: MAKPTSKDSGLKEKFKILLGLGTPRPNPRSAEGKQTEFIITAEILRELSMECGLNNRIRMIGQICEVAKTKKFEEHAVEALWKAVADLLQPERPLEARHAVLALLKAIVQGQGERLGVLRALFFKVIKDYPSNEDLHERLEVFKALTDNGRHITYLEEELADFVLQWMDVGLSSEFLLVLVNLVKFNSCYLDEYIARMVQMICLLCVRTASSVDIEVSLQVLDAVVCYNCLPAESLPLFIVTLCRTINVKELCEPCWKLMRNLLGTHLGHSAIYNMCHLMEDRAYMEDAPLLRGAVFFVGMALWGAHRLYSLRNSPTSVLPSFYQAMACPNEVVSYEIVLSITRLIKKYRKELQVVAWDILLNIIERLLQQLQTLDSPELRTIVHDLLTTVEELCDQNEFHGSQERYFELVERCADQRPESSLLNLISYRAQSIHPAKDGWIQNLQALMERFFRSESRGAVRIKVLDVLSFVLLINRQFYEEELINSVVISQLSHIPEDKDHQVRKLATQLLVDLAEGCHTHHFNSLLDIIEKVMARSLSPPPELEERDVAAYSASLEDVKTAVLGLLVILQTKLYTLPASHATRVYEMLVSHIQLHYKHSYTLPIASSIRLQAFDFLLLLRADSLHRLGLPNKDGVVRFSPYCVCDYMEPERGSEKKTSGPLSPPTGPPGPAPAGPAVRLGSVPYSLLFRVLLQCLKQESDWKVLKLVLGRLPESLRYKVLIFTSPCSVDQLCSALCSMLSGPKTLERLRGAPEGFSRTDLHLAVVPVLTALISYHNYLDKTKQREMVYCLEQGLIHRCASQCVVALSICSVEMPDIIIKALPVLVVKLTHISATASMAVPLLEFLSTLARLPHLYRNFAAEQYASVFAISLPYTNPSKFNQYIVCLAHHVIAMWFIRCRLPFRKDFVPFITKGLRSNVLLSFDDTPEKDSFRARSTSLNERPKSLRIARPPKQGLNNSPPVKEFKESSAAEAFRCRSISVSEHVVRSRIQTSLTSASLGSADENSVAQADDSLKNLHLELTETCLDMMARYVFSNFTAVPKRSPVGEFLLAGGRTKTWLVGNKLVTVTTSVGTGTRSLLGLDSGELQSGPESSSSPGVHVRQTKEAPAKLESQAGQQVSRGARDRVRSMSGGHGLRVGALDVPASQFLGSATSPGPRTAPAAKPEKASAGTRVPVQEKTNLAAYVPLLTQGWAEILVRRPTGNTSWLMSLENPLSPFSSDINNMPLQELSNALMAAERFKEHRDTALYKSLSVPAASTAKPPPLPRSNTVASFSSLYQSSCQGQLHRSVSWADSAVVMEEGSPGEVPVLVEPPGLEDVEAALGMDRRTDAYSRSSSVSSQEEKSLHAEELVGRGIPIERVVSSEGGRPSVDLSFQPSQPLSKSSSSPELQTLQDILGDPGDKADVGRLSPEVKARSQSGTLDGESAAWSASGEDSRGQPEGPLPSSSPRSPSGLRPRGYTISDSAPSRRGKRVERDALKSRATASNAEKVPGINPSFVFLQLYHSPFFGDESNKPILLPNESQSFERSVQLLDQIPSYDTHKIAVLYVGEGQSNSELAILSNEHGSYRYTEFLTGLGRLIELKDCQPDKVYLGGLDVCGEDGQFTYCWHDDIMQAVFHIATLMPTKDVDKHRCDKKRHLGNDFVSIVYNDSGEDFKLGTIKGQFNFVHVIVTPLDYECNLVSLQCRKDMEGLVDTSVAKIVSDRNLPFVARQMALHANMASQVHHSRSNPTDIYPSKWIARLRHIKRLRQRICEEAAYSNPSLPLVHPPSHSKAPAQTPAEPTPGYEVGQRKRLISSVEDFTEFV
# UniProt P29597: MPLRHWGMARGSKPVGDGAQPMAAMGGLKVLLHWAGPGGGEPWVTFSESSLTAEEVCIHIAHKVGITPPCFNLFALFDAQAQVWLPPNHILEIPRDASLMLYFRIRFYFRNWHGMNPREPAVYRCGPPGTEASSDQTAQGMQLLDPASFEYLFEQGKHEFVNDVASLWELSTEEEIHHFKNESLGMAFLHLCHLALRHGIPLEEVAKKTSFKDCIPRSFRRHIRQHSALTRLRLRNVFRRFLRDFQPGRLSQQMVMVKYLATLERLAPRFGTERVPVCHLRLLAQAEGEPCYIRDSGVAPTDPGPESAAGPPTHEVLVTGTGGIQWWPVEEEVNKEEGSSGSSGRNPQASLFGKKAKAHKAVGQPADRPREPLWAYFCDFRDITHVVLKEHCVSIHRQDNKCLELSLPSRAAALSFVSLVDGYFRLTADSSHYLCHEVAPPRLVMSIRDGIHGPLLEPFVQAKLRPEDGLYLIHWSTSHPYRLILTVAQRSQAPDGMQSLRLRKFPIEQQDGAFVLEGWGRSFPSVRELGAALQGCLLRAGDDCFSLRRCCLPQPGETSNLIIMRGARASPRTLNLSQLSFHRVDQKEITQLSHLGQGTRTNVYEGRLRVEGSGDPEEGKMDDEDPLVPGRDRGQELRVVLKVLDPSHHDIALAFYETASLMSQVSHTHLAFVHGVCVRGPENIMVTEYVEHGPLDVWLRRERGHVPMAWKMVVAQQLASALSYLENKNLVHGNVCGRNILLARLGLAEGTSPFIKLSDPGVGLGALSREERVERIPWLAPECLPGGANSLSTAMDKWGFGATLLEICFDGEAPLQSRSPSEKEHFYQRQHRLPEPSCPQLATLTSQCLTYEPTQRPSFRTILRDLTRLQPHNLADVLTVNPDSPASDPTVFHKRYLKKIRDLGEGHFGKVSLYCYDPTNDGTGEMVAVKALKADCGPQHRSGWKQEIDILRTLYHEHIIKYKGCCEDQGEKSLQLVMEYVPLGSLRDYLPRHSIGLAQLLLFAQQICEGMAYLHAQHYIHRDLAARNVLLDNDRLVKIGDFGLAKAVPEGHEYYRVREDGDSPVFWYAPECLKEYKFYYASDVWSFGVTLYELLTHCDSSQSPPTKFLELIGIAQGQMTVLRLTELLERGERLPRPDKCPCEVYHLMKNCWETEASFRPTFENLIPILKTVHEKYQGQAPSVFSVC
# UniProt Q5VYS8: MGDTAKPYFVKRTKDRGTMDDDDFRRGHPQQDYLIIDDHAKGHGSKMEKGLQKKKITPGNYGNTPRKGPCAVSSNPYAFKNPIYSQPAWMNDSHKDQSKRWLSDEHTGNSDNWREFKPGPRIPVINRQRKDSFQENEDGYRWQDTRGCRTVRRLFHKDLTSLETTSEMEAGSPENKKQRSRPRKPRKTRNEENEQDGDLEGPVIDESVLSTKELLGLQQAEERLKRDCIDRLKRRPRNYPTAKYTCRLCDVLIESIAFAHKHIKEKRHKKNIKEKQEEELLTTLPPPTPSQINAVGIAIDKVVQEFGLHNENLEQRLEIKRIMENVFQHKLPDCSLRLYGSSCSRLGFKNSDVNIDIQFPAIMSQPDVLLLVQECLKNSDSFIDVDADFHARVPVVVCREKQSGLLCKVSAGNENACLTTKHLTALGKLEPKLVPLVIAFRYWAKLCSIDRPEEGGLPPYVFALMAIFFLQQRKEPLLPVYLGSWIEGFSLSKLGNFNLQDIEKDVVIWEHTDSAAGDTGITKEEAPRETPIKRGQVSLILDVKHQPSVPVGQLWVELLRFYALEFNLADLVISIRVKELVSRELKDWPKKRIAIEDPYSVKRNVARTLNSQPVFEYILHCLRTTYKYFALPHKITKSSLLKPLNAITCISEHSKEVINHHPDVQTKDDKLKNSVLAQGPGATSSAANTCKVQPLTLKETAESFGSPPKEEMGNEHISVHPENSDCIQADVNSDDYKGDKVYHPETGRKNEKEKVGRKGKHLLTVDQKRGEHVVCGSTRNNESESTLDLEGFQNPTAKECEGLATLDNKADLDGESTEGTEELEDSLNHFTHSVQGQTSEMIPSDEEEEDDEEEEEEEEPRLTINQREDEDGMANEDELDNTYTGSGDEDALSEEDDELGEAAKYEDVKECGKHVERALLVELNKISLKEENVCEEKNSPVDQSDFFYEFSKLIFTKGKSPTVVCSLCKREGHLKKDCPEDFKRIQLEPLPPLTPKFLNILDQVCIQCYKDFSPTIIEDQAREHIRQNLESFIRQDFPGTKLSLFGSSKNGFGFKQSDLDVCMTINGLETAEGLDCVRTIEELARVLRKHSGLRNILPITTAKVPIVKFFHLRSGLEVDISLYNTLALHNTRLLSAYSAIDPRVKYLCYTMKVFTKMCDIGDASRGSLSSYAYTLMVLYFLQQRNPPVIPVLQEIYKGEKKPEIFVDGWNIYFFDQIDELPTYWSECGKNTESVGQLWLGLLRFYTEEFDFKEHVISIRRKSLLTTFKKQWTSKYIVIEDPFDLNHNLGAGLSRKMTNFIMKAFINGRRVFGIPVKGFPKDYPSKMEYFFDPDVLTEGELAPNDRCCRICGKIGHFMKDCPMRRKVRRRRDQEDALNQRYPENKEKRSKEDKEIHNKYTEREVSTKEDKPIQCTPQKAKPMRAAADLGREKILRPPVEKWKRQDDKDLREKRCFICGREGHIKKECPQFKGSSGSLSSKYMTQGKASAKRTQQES
# The other results are listed elsewhere or left out. The data scatter; read single values as rough.
# Compound: ClCC(=O)N[C@@H]1CCCc2ccccc12
# Experiment: log2 mean competition ratio of IA-DTB cysteine labelling (DMSO/compound) (log2 ratio); higher = stronger cysteine engagement by compound
# Details: 50 µM; treatment time: 4 h; cell line lysate: HEK293T
# Protocol: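 IA-DTB competitive cysteine chemoproteomics in HEK293T RIPA lysate. Lysates were treated with compound 29 or 30 at 50 or 200 µM for 4 h, then IA-DTB (500 µM, 1 h), trypsin-digested, NeutrAvidin-enriched and analysed by diaPASEF. Competition ratio = intensity DMSO / intensity compound (n=4 treated, n=64 DMSO); binding: mean log2 CR ≥ 1 and p ≤ 0.05 plus QC filters. Target is the cysteine site.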
row,Target,log2 mean competition ratio
1,TRPT1 C147 (UniProt Q86TN4),-0.025
2,TTC5 C29 (UniProt Q8N0Z6),0.145
3,UBAC1 C322 (UniProt Q9BSL1),-0.0258
4,UBE2N C87 (UniProt P61088),0.213
5,TTC1 C28 (UniProt Q99614),-0.258
6,UBAC1 C47 (UniProt Q9BSL1),0.399
7,TRRAP C2876 (UniProt Q9Y4A5),0.0163
8,TSFM C64 (UniProt P43897),0.0559
9,TTC4 C174 (UniProt O95801),0.321
10,UBE3D C330 (UniProt Q7Z6J8),0.298
11,TUBD1 C46 (UniProt Q9UJT1),-0.122
12,TSPYL4 C117 (UniProt Q9UJ04),-0.193
13,UBE2Q1 C157 (UniProt Q7Z7E8),-0.137
14,TTF2 C553 (UniProt Q9UNY4),0.127
15,TSC2 C52 (UniProt P49815),-0.0357
16,TTC1 C178 (UniProt Q99614),-0.183
17,TTC9 C67,-0.0629
18,TYK2 C536 (UniProt P29597),0.36
19,TUT7 C417 (UniProt Q5VYS8),0.0742
20,TXLNG C127 (UniProt Q9NUQ3),0.177

# Same assay, conditions: 200 µM; treatment time: 4 h; cell line lysate: HEK293T
row,Target,log2 mean competition ratio
1,TRPT1 C147 (UniProt Q86TN4),0.142
2,TTC5 C29 (UniProt Q8N0Z6),-0.154
3,UBAC1 C322 (UniProt Q9BSL1),-0.468
4,UBE2N C87 (UniProt P61088),-0.191
5,TTC1 C28 (UniProt Q99614),-0.247
6,UBAC1 C47 (UniProt Q9BSL1),-0.595
7,TRRAP C2876 (UniProt Q9Y4A5),-0.103
8,TSFM C64 (UniProt P43897),-0.221
9,TTC4 C174 (UniProt O95801),0.175
10,UBE3D C330 (UniProt Q7Z6J8),-0.105
11,TUBD1 C46 (UniProt Q9UJT1),0.0344
12,TSPYL4 C117 (UniProt Q9UJ04),0.114
13,UBE2Q1 C157 (UniProt Q7Z7E8),-0.162
14,TTF2 C553 (UniProt Q9UNY4),0.0416
15,TSC2 C52 (UniProt P49815),0.175
16,TTC1 C178 (UniProt Q99614),-0.0199
17,TTC9 C67,-0.136
18,TYK2 C536 (UniProt P29597),0.138
19,TUT7 C417 (UniProt Q5VYS8),0.209
20,TXLNG C127 (UniProt Q9NUQ3),0.111
